Laboratory results: PubChem BioAssay AID1259308 (NCATS, 2017)

- Test: 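Genes whose loss raises luciferase production in HEK293 cells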 (primary screen)
- Cell system: human HEK293 embryonic kidney cells stably expressing firefly luciferase (HEK-CMV-Luc2-Hygro)
- Reagents: single siRNA against human genes, 0.8 pmol siRNA per well
- Time to read-out: 72 h
- Read-out: 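Reporter luminescence and viable-cell signal on separate replicate plates, given as percent of non-targeting control and median/MAD z-scores, plus per-cell luciferase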
- Reading the numbers: total luciferase, z-score and total luciferase, % of control: higher = more reporter protein produced; luciferase per cell, z-score: higher = more reporter output per viable cell; viable cells, % of control: higher = more viable cells
- Hit rule: 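Active when the median/MAD z-score for overall luciferase is greater than 3; a gene was taken forward for validation with new siRNAs if at least two of its three siRNAs passed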
- Calls: active = raised luciferase; inactive = no rise
Shown is an unselected part of about 59,000 reagents. About 1,510 of all reagents (2.6%) were called active. 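Calls use total luciferase alone and ignore viability, so some active siRNAs may act by altering cell number.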 Entries without a mark were called inactive. The numbers tell different reagents against one gene apart.

Target gene | reagent no. | total luciferase, z-score | total luciferase, % of control | luciferase per cell, z-score | viable cells, % of control
CSTL1 | 1 | 0.305 | 88 | 1.17 | 72.2
CSTL1 | 2 | 0.268 | 87.2 | 0.0624 | 95.9
CSTL1 | 3 | 0.0573 | 83 | 0.785 | 75.4
KDM1A | 1 | -0.0894 | 80.1 | 0.235 | 84.1
KDM1A | 2 | 1.7 | 116 | 1.11 | 96.6
KDM1A | 3 | -0.319 | 75.5 | 0.0781 | 82.7
PARN | 1 | -0.947 | 63 | -1.14 | 95.2
PARN | 2 | -1.54 | 51.2 | -1.55 | 86
PARN | 3 | 0.36 | 89 | 0.432 | 88.8
GIN1 | 1 | 0.26 | 87.1 | 0.088 | 95.1
GIN1 | 2 | 1.2 | 106 | 0.903 | 93.2
GIN1 | 3 | 0.186 | 85.6 | -0.221 | 101
PCNA | 1 | 0.903 | 99.8 | 0.992 | 85.9
PCNA | 2 | 2.22 | 126 | 1.73 | 89.2
PCNA | 3 | -1.44 | 53.2 | -1.58 | 90
CCDC158 | 1 | -1.3 | 55.9 | -2.27 | 114
CCDC158 | 2 | -0.0724 | 80.4 | -0.141 | 93.3
CCDC158 | 3 | -0.637 | 69.2 | -0.643 | 91.6
RSPRY1 | 1 | -0.411 | 73.7 | 0.356 | 75
RSPRY1 | 2 | 0.0271 | 82.4 | 0.414 | 82.6
RSPRY1 | 3 | -0.738 | 67.2 | -0.641 | 88.9
CCDC22 | 1 | 2.69 | 135 | 1.44 | 104
CCDC22 | 2 | -0.1 | 79.9 | 0.0673 | 87.7
CCDC22 | 3 | -0.535 | 71.2 | -1.08 | 106

No new results follow: 4 of the entries above.
Target gene | reagent no. | total luciferase, z-score | total luciferase, % of control | luciferase per cell, z-score | viable cells, % of control
PARN | 1 | -0.947 | 63 | -1.14 | 95.2
PARN | 2 | -1.54 | 51.2 | -1.55 | 86
PARN | 3 | 0.36 | 89 | 0.432 | 88.8
GIN1 | 1 | 0.26 | 87.1 | 0.088 | 95.1
